{
  "source": "patent US20120208873A1",
  "about": "“TEA POLYPHENOLS PRODUCTS FOR CEASING SMOKING AND TREATING AND/OR PREVENTING NICOTINE OR NICOTINE-DERIVED COMPOUNDS OR ESTROGEN INDUCED BREAST CANCER” (priority 2011, published 2012)",
  "assay_type_in_all_cases": "cell-based, human",
  "key": {"α9-nAChR protein": {"tested_on": "α9-nAChR protein", "test": "α9-nAChR protein levels by immunoblotting in MCF-7 cells", "settings": "Nic 0.1-10 μM, NNK 0.1-10 μM or E2 1-200 nM, 24 h, dose-dependent", "protocol": "Human mammary gland epithelial adenocarcinomas (MCF7, MDA-MB-231, AU-565, MDA-MB-453, and BT-483) and normal human mammary gland epithelial fibrocystic cell lines (MCF-10A and HBL-100) were purchased from ATCC (American Type Culture Collection, Manassas, Va., USA). MCF-7, MDA-MB-231, and MDA-MB-453 cells were maintained in DMEM, whereas BT-483 cells were maintained in RPMI-1640. Cell growth, proliferation, and viability were determined by the 3-(4,5-dimethylthiazol-2-yl)-2,5-diphenyltetrazolium (MTT) assay. The formazan product was measured by absorbance at 540 nm.\nTo prepare protein samples, cells were washed once with ice-cold PBS and lysed on ice in cell lysis buffer (50 mM Tris-HCl, pH 8.0, 120 mM […], 0.5% Nonidet P-40, 100 mM sodium fluoride, and 200 μM sodium orthovanadate) containing protease inhibitors as described previously (Shih, Y. L., Liu, H. C., Chen, C. S., Hsu, C. H. et al., J. Agric. Food Chem. 2010, 58, 235-241). Protein (50 μg) from each sample was resolved by 12% SDS-polyacrylamide gel electrophoresis, transferred, and analyzed by Western blotting. […]"}, "α9-nAChR mRNA": {"tested_on": "α9-nAChR mRNA", "test": "α9-nAChR mRNA by RT-PCR / real-time PCR in MCF-7 cells", "settings": "Nic 10 μM or E2 10 nM, 24 h", "protocol": "Total RNA was isolated from human cell lines using TRIzol (Invitrogen, Carlsbad, Calif., USA) according to the manufacturer's protocol. The α9-nAChR subunit-specific primers were synthesized by MB Mission BioTech (Taipei, Taiwan) as described in the previous reports (Chen, C. S., Lee, C. H., Hsieh, C. D., Ho, C. T. et al., Breast Cancer Res. Treat. 2010; Shih, Y. L., Liu, H. C., Chen, C. S., Hsu, C. H. et al., J. Agric. Food Chem. 2010, 58, 235-241). The PCR amplicons were analyzed on 1.2% agarose gels (Amresco, Solon, Ohio, USA) stained with ethidium bromide. The α9-nAChR mRNA intensity was measured and normalized to β-glucuronidase expression. Pictures of the bands were taken using an INFINITY-α digital imaging system (Vilber Lourmat, France), and band intensities were determined using PhotoCapt Version 11.01 software."}, "p-AKT (Ser^473)": {"tested_on": "p-AKT (Ser^473)", "test": "phosphorylated AKT by immunoblotting in MCF-7 cells", "settings": "Nic 10 μM or E2 10 nM, 24 h", "protocol": "To prepare protein samples, cells were washed once with ice-cold PBS and lysed on ice in cell lysis buffer (50 mM Tris-HCl, pH 8.0, 120 mM […], 0.5% Nonidet P-40, 100 mM sodium fluoride, and 200 μM sodium orthovanadate) containing protease inhibitors as described previously (Shih, Y. L., Liu, H. C., Chen, C. S., Hsu, C. H. et al., J. Agric. Food Chem. 2010, 58, 235-241). Protein (50 μg) from each sample was resolved by 12% SDS-polyacrylamide gel electrophoresis, transferred, and analyzed by Western blotting. Antibodies were purchased from the following vendors: anti-total AKT and protein A/G agarose beads were obtained from Santa Cruz Biotechnology (Santa Cruz, Calif., USA); anti-GAPDH and anti-α9-nAChR antibodies were from Abcam (Cambridge, UK); antiphospho AKT (Ser^473), anti-c-Jun, and anti-c-Fos were from Cell Signaling Technology (Beverly, Mass., USA). The secondary antibodies, alkaline phosphatase-coupled anti-mouse, and anti-rabbit IgG were purchased from Santa Cruz Biotechnology. The specific protein complexes were identified with the chromogenic substrates nitro blue tetrazolium, and 5-bromo-4-chloro-3-indolyl-phosphate from KPL (Gaithersburg, Md., USA). In each experiment, proteins were also probed with anti-GAPDH antibodies as a protein-loading control."}},
  "note": "At least one structure is not confirmed: it was looked up by name or label, or the drawing left a doubt.",
  "data": [
    {"smiles": "C[C@]12CC[C@@H]3c4ccc(O)cc4CC[C@H]3[C@@H]1CC[C@@H]2O", "note": "[E2, estradiol]", "values": [
      {"measurement": "α9-nAChR protein level", "setting": "α9-nAChR protein", "result": "significantly induced"},
      {"measurement": "α9-nAChR mRNA expression (real-time PCR)", "setting": "α9-nAChR mRNA", "result": "significantly upregulated"},
      {"measurement": "levels of p-AKT (Ser^473)", "setting": "p-AKT (Ser^473)", "result": "significantly increased"}
    ]}
  ]
}
